Key:
Assay type in all cases: in vivo, rat (Sprague-Dawley)
cGMP in rat plasma [1] = experiment: Plasma cGMP content by ELISA; conditions: i.v.: atenolol 3 mg/kg, sildenafil 0.3 mg/kg, sodium nitroprusside 0.1 mg/kg
Method: To determine the plasma cGMP content, Sprague-Dawley rats were anesthetized with urethane (1.25 g/kg). The right carotid artery was catheterized for constant blood pressure and heart rate measurement by means of a pressure transducer connected to a PowerLab data acquisition system (ADInstruments). The left external jugular vein was catheterized for saline or drug infusion. After administering the respective treatments, rat plasma samples were collected, immediately frozen and stored at −80° C. until extraction for cyclic nucleotide assay. cGMP was determined by ELISA using a kit from Cayman Chemical Co. Plasmatic cGMP levels were determined 10 minutes after nebivolol administration.

cGMP in rat plasma [2] = experiment: Plasma cGMP in STZ-diabetic rats; conditions: 3 and 10 mg/kg/day for 10 days
Method: Male Sprague-Dawley rats were used as a model for this study. Diabetes was induced by a single injection of streptozotocin (STZ, 60 mg/kg; i.p.) dissolved in 0.1 M citric acid/trisodic citrate buffer (pH 4-4.5) and was assessed by glycemia determination 72 h after induction. Animals were kept, with free access to food and water, for 8 weeks before experimental assays. Eight weeks after induction of diabetes, rats show altered in vivo vascular function (Angulo et al., Naunyn-Schmiedeberg's Arch Pharmacol, 358(5), 529-37, 1998) and reduced erectile responses (Angulo et al., J. Sex Med., 2, 341-346, 2005). Blood glucose concentration was determined each week and just before the experiment. Insulin levels were not determined. Plasma samples were collected, immediately frozen and stored at −80° C. until extraction for cyclic nucleotide assay. […] The tissues were then extracted by homogenization in 6% trichloroacetic acid, followed by ether (H2O-saturated) extraction and lyophilization. cGMP was determined by ELISA using a kit from Cayman Chemical Co. Eight weeks after untreated diabetes, subcutaneous osmotic minipumps (Alzet, Cupertino, Calif., 2002 model) containing vehicle (PEG300:DMSO, 1:1), atenolol or nebivolol were implanted. […] After 10 days treatment, diabetic rats were anesthetized and erectile responses to cavernosal nerve electrical stimulation (CNES) were determined. […]

[3] = tested on: thiobarbituric acid reactive substances (TBARS) in rat serum; experiment: Serum TBARS in STZ-diabetic rats; conditions: administered for 10 days; groups with and without sildenafil pooled
Method: Male Sprague-Dawley rats were used as a model for this study. Diabetes was induced by a single injection of streptozotocin (STZ, 60 mg/kg; i.p.) dissolved in 0.1 M citric acid/trisodic citrate buffer (pH 4-4.5) and was assessed by glycemia determination 72 h after induction. Animals were kept, with free access to food and water, for 8 weeks before experimental assays. Eight weeks after induction of diabetes, rats show altered in vivo vascular function (Angulo et al., Naunyn-Schmiedeberg's Arch Pharmacol, 358(5), 529-37, 1998) and reduced erectile responses (Angulo et al., J. Sex Med., 2, 341-346, 2005). Blood glucose concentration was determined each week and just before the experiment. Insulin levels were not determined. […] Thiobarbituric acid reactive substances (TBARS) were determined by reacting thiobarbituric acid with serum samples at 70° C. for 30 min and reading absorbance at 532 nm. Serum concentrations of TBARS were determined by using malondialdehyde (MDA) as a standard. […] Results were expressed as ng/ml of MDA equivalents. […] After 10 days treatment, diabetic rats were anesthetized and erectile responses to cavernosal nerve electrical stimulation (CNES) were determined. […] Forty five minutes later, erectile responses to CNES were again evaluated, and 5 min after CNES application, blood was collected for obtaining plasma and serum, and the penis was excised. […]

SMILES: CC(C)NCC(O)COc1ccc(CC(N)=O)cc1 (stereo not shown) [atenolol]
- effect on plasma cGMP levels (cGMP in rat plasma [1]): did not significantly modify
- effect on plasma cGMP content in diabetic rats (cGMP in rat plasma [2]): did not result in significant modifications
- influence on the effects of sildenafil on plasma cGMP content in diabetic rats (cGMP in rat plasma [2]; sildenafil 0.3 mg/kg i.v.): did not influence
- effect on TBARS levels in diabetic rats [3]: trend to reduce

From patent US20090181975A1, “NEBIVOLOL IN THE TREATMENT OF SEXUAL DYSFUNCTION” (FOREST LABORATORIES HOLDINGS LIMITED, priority 2008, published 2009)
